Results reported in publication doi:10.1101/156901.
Results are given in words; binding and its absence hold for the method and conditions named. Binding seen in cells or lysates may run through a third protein. Some binding calls cover weakened binding; strength is not graded here. Each block holds one molecule with its values, some of them ahead of it.

Sequences of proteins named here, by UniProt entry; tags and fusion partners are left off.
UniProt Q9QZL0: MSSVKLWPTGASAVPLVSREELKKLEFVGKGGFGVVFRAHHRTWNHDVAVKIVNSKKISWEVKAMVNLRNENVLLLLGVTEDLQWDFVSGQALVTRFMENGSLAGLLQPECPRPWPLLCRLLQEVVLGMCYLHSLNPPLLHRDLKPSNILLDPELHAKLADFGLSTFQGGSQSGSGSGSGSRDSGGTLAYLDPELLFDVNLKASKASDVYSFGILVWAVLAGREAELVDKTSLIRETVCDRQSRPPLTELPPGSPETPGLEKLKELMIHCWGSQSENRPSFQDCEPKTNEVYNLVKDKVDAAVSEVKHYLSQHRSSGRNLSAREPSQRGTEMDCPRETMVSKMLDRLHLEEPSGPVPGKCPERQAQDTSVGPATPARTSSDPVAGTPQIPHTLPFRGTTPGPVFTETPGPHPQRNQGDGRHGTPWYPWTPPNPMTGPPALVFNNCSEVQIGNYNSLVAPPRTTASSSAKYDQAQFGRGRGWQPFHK

What was measured:
[1] = biological target: T1, endogenous RARα (mouse (endogenous in TT2 ES cells)) (UniProt P11416); assay: co-IP
T1 sequence: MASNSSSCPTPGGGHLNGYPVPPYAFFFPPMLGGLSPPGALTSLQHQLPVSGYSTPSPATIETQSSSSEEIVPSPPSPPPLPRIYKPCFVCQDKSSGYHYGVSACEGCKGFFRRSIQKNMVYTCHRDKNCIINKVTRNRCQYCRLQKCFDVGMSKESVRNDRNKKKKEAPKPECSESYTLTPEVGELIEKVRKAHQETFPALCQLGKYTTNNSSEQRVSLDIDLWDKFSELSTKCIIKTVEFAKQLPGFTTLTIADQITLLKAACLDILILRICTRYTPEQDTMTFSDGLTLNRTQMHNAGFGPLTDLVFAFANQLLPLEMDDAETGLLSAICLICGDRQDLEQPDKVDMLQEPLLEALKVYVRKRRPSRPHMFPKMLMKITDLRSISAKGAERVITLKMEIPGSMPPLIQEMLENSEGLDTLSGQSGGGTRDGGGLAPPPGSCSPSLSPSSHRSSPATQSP

[2] = biological target: 3xFlag-Wt Ripk3 expressed in Tet-On shCasp8 ES cells (mouse) (UniProt Q9QZL0); assay: co-IP

binding [1]: binds
Molecule: endogenous RIPK3 (from UniProt Q9QZL0 1-486)

binding [2]: binds
B1: endogenous RARα (protein, UniProt P11416 1-462)
chain: T1 sequence
